The values below come from PMC3842248.

These are yes or no findings as the source states them, for the method shown. In cells and extracts the contact can be indirect. For part of these data: Binding can be weak; no strength is given. Where a sequence is shown, tags or fusion partners need not be part of it.

Holding throughout (test): split reporter; protein complementation assay with Gaussia princeps luciferase fragments: Gluc1-LEDGF construct or PWWP domain and Gluc2-PIR co-expressed in 293T cells, luminescence of the lysate 24 h after transfection; normalized luminescence ratio (NLR), threshold 3.5
In test [1] the target is BS69 PWWP domain (aa 233-325), PCA fusion (human).
For test [2], the target named is HDGF PWWP domain (aa 41-105), PCA fusion (human).
Test [3] deals with PDP1 PWWP domain (aa 41-163), PCA fusion (saccharomyces pombe (so in the source)).

B1: Gluc2-TOX4 PIR (domain or fragment, UniProt O94842 203-621)
chain: VEAGKKQKAPKKRKKKDPNEPQKPVSAYALFFRDTQAAIKGQNPNATFGEVSKIVASMWDSLGEEQKQVYKRKTEAAKKEYLKALAAYKDNQECQATVETVELDPAPPSQTPSPPPMATVDPASPAPASIEPPALSPSIVVNSTLSSYVANQASSGAGGQPNITKLIITKQMLPSSITMSQGGMVTVIPATVVTSRGLQLGQTSTATIQPSQQAQIVTRSVLQAAAAAAAAASMQLPPPRLQPPPLQQMPQPPTQQQVTILQQPPPLQAMQQPPPQKVRINLQQQPPPLQIKSVPLPTLKMQTTLVPPTVESSPERPMNNSPEAHTVEAPSPETICEMITDVVPEVESPSQMDVELVSGSPVALSPQPRCVRSGCENPPIVSKDWDNEYCSNECVVKHCRDVFLAWVASRNSNTVVFVK
For the molecule B1, the binding entry is recorded as “no binding” in test [1], “binds” in test [2] and “no binding” in test [3].
